Test results reported in the supplement of paper PMC6078165.
The reference is the same well before dosing, and untreated signal decays as well.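 Fibroblast labels denote human fibroblasts, mainly primary ones from uterus (C12385, HUF), lung (H6013), bone (Hs27A), adrenal (HADF) and skin (WS1), plus mammary HMF and breast cancer-associated Hs343T. Cancer cells are basal-like or mesenchymal-like triple-negative breast cancer lines. A hit is a response shift exceeding 3x replicate standard deviation. The tissue of the other fibroblasts is not given here.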

Test system: MDAMB231
Assay: relative JC-1 red fluorescence (viability) vs pre-drug, coculture with fibroblast (fraction); higher = more viable cancer cells
Procedure: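 JC-1 labelled TNBC cells cocultured 1:1 (1,500 cells each) with CellTrace Violet stained primary or stromal fibroblasts in 384-well plates in FluoroBrite medium, treated with one of 42 anticancer drugs at 0.1, 1, 10 or 100 uM. JC-1 red fluorescence (mitochondrial integrity in cancer cells only) was read by plate reader every 8 h for 72 h. Values are normalised to each well's pre-drug value. The stock of one drug was tenfold lower, so its dose labels may be too high.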

O=C(CCCCCCC(=O)Nc1ccccc1)NO [Vorinostat]
relative JC-1 red fluorescence
Settings | 8 h | 16 h | 24 h | 32 h | 40 h | 48 h | 56 h | 64 h | 72 h
0.1 µM, coculture fibroblast: C12385 | 0.76907 | 0.7115 | 0.624 | 0.607 | 0.55 | 0.526 | 0.487 | 0.483 | 0.467
0.1 µM, coculture fibroblast: H6013 | 0.951 | 0.907 | 0.886 | 0.794 | 0.85 | 0.814 | 0.811 | 0.787 | 0.761
0.1 µM, coculture fibroblast: H6019 | 0.734 | 0.6825 | 0.586 | 0.571 | 0.5193 | 0.487 | 0.434 | 0.406 | 0.3746
0.1 µM, coculture fibroblast: H6076 | 0.854 | 0.767 | 0.703 | 0.666 | 0.634 | 0.6 | 0.574 | 0.557 | 0.543
0.1 µM, coculture fibroblast: H6231 | 0.909 | 0.8 | 0.723 | 0.665 | 0.612 | 0.571 | 0.528 | 0.50972 | 0.487
0.1 µM, coculture fibroblast: HADF | 0.867 | 0.808 | 0.758 | 0.723 | 0.674 | 0.622 | 0.6119 | 0.5884 | 0.542
0.1 µM, coculture fibroblast: HCFa | 0.858 | 0.803 | 0.754 | 0.711 | 0.664 | 0.606 | 0.588 | 0.553 | 0.504
0.1 µM, coculture fibroblast: HCPF | 0.951 | 0.842 | 0.761 | 0.723 | 0.668 | 0.624 | 0.579 | 0.536 | 0.511
0.1 µM, coculture fibroblast: HHSteC | 0.8815 | 0.846 | 0.793 | 0.732 | 0.68596 | 0.6457 | 0.606 | 0.58085 | 0.5426
0.1 µM, coculture fibroblast: HMF | 0.855 | 0.751 | 0.686 | 0.6411 | 0.593 | 0.551 | 0.513 | 0.495 | 0.476
0.1 µM, coculture fibroblast: HPFa | 0.9439 | 0.8948 | 0.838 | 0.788 | 0.758 | 0.715 | 0.664 | 0.641 | 0.589
0.1 µM, coculture fibroblast: HUF | 0.841 | 0.681 | 0.694 | 0.58 | 0.516 | 0.506 | 0.459 | 0.45 | 0.436
0.1 µM, coculture fibroblast: Hs5 | 0.853 | 0.781 | 0.717 | 0.669 | 0.614 | 0.565 | 0.521 | 0.486 | 0.45179
0.1 µM, coculture fibroblast: Hs27A | 0.8714 | 0.8103 | 0.7687 | 0.747 | 0.689 | 0.626 | 0.626 | 0.599 | 0.554
0.1 µM, coculture fibroblast: Hs343T | 0.8694 | 0.751 | 0.6698 | 0.626 | 0.564 | 0.509 | 0.452 | 0.428 | 0.401
0.1 µM, coculture fibroblast: WS1 | 0.725 | 0.68 | 0.591 | 0.548 | 0.501 | 0.472 | 0.427 | 0.415 | 0.387
1 µM, coculture fibroblast: C12385 | 0.742 | 0.717 | 0.634 | 0.627 | 0.585 | 0.5724 | 0.545 | 0.5439 | 0.533
1 µM, coculture fibroblast: H6013 | 0.8782 | 0.8189 | 0.761 | 0.7368 | 0.705 | 0.698 | 0.695 | 0.679 | 0.659
1 µM, coculture fibroblast: H6019 | 0.733 | 0.656 | 0.603 | 0.57 | 0.539 | 0.538 | 0.498 | 0.505 | 0.486
1 µM, coculture fibroblast: H6076 | 0.935 | 0.87 | 0.797 | 0.789 | 0.771 | 0.752 | 0.75 | 0.76 | 0.77
1 µM, coculture fibroblast: H6231 | 0.8969 | 0.8143 | 0.76 | 0.736 | 0.686 | 0.66 | 0.627 | 0.612 | 0.596
1 µM, coculture fibroblast: HADF | 0.89 | 0.854 | 0.846 | 0.848 | 0.838 | 0.817 | 0.706 | 0.752 | 0.762
1 µM, coculture fibroblast: HCFa | 0.8697 | 0.79562 | 0.771 | 0.7337 | 0.6918 | 0.653 | 0.632 | 0.6067 | 0.586
1 µM, coculture fibroblast: HCPF | 0.905 | 0.798 | 0.721 | 0.695 | 0.641 | 0.603 | 0.572 | 0.544 | 0.5218
1 µM, coculture fibroblast: HHSteC | 0.8707 | 0.812 | 0.769 | 0.745 | 0.712 | 0.699 | 0.666 | 0.654 | 0.624
1 µM, coculture fibroblast: HMF | 0.9 | 0.742 | 0.7306 | 0.839 | 0.817 | 0.792 | 0.77 | 0.757 | 0.751
1 µM, coculture fibroblast: HPFa | 0.919 | 0.886 | 0.8065 | 0.7547 | 0.725 | 0.696 | 0.658 | 0.64082 | 0.6092
1 µM, coculture fibroblast: HUF | 0.8348 | 0.732 | 0.73025 | 0.6435 | 0.595 | 0.591 | 0.549 | 0.548 | 0.526
1 µM, coculture fibroblast: Hs5 | 0.876 | 0.795 | 0.731 | 0.699 | 0.672 | 0.638 | 0.606 | 0.59 | 0.569
1 µM, coculture fibroblast: Hs27A | 0.865 | 0.7983 | 0.7567 | 0.74666 | 0.7044 | 0.63 | 0.6531 | 0.6397 | 0.6077
1 µM, coculture fibroblast: Hs343T | 0.902 | 0.808 | 0.71 | 0.686 | 0.646 | 0.611 | 0.574 | 0.565 | 0.551
1 µM, coculture fibroblast: WS1 | 0.749 | 0.708 | 0.606 | 0.582 | 0.559 | 0.545 | 0.513 | 0.51 | 0.492
